The experiment addresses forkhead box O1 class (FOXO1) (mouse (endogenous in HL-1)) (UniProt Q9R1E0). As to the kind of experiment: co-IP; HL-1 cells, sham or infected with CVB3 for 48 h; lysate precipitated with anti-FOXO1 antibody (Pierce Classic Magnetic IP/Co-IP Kit), blotted for the partner.

Sequences of proteins named here, by UniProt entry; tags and fusion partners are left off.
UniProt Q9R1E0: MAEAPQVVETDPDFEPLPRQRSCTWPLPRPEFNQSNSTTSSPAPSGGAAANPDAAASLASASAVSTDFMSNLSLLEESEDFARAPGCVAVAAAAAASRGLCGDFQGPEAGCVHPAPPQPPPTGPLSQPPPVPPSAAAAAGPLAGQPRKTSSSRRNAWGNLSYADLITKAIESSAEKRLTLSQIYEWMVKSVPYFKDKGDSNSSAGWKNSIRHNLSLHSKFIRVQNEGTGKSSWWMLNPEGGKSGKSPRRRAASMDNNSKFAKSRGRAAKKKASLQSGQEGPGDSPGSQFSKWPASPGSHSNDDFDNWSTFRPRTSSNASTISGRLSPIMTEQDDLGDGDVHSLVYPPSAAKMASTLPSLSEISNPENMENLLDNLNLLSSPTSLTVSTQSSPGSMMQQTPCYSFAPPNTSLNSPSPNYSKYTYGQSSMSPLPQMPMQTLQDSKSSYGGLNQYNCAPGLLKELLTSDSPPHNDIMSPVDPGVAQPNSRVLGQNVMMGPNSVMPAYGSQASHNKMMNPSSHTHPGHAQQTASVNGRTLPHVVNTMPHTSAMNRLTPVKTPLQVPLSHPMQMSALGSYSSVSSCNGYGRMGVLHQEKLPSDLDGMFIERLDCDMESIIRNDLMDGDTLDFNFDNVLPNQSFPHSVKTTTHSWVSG
UniProt P45481: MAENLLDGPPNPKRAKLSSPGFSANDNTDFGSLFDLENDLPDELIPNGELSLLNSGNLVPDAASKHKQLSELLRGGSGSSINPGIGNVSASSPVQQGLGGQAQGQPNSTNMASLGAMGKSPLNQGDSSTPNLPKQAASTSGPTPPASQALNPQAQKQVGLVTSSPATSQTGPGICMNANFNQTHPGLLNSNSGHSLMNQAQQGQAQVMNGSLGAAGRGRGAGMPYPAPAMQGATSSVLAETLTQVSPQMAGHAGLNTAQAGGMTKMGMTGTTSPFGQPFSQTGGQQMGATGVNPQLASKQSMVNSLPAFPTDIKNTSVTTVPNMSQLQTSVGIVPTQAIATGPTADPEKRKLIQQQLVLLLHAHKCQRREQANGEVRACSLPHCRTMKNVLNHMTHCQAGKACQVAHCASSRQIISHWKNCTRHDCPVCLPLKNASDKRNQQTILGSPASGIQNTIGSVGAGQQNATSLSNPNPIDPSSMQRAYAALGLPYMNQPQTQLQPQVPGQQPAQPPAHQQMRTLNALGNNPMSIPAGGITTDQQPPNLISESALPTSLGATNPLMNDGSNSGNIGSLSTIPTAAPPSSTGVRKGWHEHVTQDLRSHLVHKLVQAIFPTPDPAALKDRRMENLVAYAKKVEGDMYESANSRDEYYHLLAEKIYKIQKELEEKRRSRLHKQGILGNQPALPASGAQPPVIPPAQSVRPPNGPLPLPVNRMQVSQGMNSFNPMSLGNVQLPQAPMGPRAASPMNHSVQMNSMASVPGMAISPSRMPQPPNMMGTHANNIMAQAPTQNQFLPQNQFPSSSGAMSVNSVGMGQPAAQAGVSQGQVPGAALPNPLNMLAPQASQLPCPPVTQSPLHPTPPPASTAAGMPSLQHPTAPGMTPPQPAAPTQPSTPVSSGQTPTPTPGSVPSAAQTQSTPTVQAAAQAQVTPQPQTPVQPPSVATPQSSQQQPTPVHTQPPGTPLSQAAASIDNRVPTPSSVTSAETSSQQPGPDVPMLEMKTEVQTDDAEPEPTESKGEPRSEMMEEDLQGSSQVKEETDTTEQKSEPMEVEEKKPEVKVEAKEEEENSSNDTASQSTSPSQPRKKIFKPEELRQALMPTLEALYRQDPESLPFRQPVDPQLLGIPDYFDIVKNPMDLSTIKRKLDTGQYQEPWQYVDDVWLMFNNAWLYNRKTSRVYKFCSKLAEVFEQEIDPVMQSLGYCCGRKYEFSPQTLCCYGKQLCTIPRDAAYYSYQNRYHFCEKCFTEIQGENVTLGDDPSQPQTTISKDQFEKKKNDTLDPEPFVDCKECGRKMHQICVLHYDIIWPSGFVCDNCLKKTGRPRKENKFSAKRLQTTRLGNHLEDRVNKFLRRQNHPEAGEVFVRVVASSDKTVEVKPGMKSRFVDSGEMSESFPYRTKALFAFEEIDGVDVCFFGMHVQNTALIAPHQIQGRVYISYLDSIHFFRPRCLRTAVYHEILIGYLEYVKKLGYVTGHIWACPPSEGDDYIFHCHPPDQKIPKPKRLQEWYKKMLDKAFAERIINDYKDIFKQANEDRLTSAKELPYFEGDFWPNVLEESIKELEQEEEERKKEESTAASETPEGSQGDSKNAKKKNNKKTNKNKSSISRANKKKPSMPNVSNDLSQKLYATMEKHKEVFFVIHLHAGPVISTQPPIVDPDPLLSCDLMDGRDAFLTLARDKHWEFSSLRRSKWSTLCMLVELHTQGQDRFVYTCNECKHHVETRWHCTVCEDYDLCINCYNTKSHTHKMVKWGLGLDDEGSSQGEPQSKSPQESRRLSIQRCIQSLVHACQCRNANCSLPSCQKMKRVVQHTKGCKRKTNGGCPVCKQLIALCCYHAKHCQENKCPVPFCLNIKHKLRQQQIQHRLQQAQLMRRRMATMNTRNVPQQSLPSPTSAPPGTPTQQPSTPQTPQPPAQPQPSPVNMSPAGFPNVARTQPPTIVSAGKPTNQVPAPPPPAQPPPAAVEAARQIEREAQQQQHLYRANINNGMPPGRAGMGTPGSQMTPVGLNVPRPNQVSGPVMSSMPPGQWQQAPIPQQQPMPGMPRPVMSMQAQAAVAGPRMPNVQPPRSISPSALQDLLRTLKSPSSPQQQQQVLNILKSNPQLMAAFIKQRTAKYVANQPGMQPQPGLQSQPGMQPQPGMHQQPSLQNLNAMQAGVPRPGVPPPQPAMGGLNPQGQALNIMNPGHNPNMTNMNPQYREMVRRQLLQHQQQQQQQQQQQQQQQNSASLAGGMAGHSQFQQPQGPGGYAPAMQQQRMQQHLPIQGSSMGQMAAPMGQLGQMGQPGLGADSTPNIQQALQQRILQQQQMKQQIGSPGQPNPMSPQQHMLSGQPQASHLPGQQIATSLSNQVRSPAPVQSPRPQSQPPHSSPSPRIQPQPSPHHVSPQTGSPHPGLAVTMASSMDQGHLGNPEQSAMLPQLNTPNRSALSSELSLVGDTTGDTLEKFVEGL

These are yes or no findings as the source states them, for the method shown. Binding seen in cells or lysates may run through a third protein. Some entries that bind do so weakly or less than the wild type.

For the substance “CBP (from UniProt P45481 1-2441) (enzyme)”, the binding entry is reported as “binds”.

(Values after paper PMC11263423.)
